Data set [1] has as its system L. infantum IMT151 promastigotes. Put plainly: Promastigotes susceptibility assay (MTT), L. infantum. Format: cell-based, Leishmania infantum. Conditions: for SI (J774A.1), L. infantum promastigotes: CC50 in J774A.1 / IC50 of promastigotes; for SI (THP-1), L. infantum promastigotes: CC50 in THP-1 / IC50 of promastigotes. As to the method: (§1) Promastigote forms of strains of L. infantum (MHOM/PT/1988/IMT151) and L. donovani (MHOM/BD/2006/BD14) were cultured at 24 °C ± 1 °C in M199 medium (Sigma) supplemented with 20% foetal bovine serum (FBS, Sigma) and 1% penicillin-streptomycin (Sigma). L. infantum strain belongs to IHMT, Portugal cryobank collection and the L. donovani strain was kindly provided by Dr. Katrin Kuhls, Technical University of Applied Sciences Wildau, Germany. Promastigotes used for the experiments had 7 to 12 in vitro passages in culture after isolation from mice, in order to keep virulence, and were used when the stationary phase of growth was reached (day 5 to 6), corresponding to the highest promastigotes density.
(§2) For the determination of the antileishmanial activity and IC50, promastigotes of L. infantum and L. donovani were plated in 96-well flat bottom culture plates at a concentration of 5 × 10^6 parasites/mL and incubated with six serial concentrations of each compound (Table 3), in four replicates, including the control drugs, amphotericin B, miltefosine and pentamidine. One untreated control (parasites with M199 medium plus 0.5% DMSO as vehicle solution) and one blank (M199 medium alone) were also plated out in quadruplicate. After 48 h incubation at 24 °C ± 1 °C, the inhibitory activity of the compounds was evaluated using the MTT, as previously described, with an additional 4 h incubation at 36 °C. Results were expressed in terms of percentage of parasite viability relative to nontreated control and IC50 was calculated fitting the data as a non-linear regression with variable slope using a dose-response inhibitory model, in the GraphPad Prism V 8.0 program. Each compound was tested in three independent assays. […]

For data set [2], the system named is L. donovani BD14 promastigotes. Put plainly: Promastigotes susceptibility assay (MTT), L. donovani. Conditions: for SI (J774A.1), L. donovani promastigotes: CC50 in J774A.1 / IC50 of promastigotes; for SI (THP-1), L. donovani promastigotes: CC50 in THP-1 / IC50 of promastigotes. The class given is cell-based, Leishmania donovani. As to the method: as §1, §2
Data set [3] concerns L. donovani BD14 intracellular amastigotes. As to the kind of experiment: Intracellular amastigotes assay in J774A.1 macrophages, L. donovani. Format: cell-based, Leishmania donovani. Conditions: CC50 in J774A.1 / IC50 of amastigotes. As to the method:
(§3) The intracellular assay using the macrophage J774A.1 cell line was performed with the compounds that presented best SI on the promastigote’s susceptibility assay. J774A.1 cells were adjusted to 2.5 × 10^5 cells/mL in supplemented DMEM medium. 200 μL/well of the cell suspension was placed in 16 well Lab Tek culture glass slides (Nunc), and incubated at 37 °C ± 1 °C, 5% CO2, for 3 h, to enable the cells to adhere to the slides. After a washing step with DMEM to discard non-attached cells, the cells were infected with 2.5 × 10^6 cells/mL promastigotes in a 10:1 parasite-host cell proportion for 24 h. Compounds and control drugs were added in two replicates of six serial concentrations (Table 3). As negative control, macrophages were cultivated in medium and DMSO, as vehicle solution (0.5% v/v). Slides were incubated for 48 h at the same temperature. After a washing step with 1× PBS (Sigma), slides were fixed and stained, and the infection index was calculated according to [34] by counting the number of intracellular amastigotes per 100 macrophages, in treated and untreated cells. Two independent experiments were performed to determine the amastigotes IC50 of each compound, which was calculated by fitting the data as a non-linear regression with variable slope using a dose-response inhibitory model, in the GraphPad Prism V 8.0 program. SI was determined as described above.

For data set [4], the system named is L. infantum IMT151 intracellular amastigotes. Put plainly: Intracellular amastigotes assay in J774A.1 macrophages, L. infantum. Format: cell-based, Leishmania infantum. The protocol: as §3

For `O=C1CCC2(CC1)OOC1(O2)C2CC3CC(C2)CC1C3` (stereo not drawn) [LC50, Dispiro[cyclohexane-1,3'-[1,2,4]trioxolane-5',2''-tricyclo[3.3.1.13,7]decan]-4-one], in data set [1], the “SI (J774A.1), L. infantum promastigotes” value worked out at 1.4 and the “SI (THP-1), L. infantum promastigotes” value is reported as 1.9. Besides, in data set [2], the “SI (J774A.1), L. donovani promastigotes” value is reported as 1.5 and the “SI (THP-1), L. donovani promastigotes” value came out at 2.0.
`C1CCC2(CC1)OOC1(OO2)C2CC3CC(C2)CC1C3` [LC137]: the “SI (J774A.1), L. donovani amastigotes” value in data set [3] is 5.0. For the same compound, in data set [1], the “SI (J774A.1), L. infantum promastigotes” value was 3.2 and the “SI (THP-1), L. infantum promastigotes” value came to 26.0. For the same compound, in data set [2], the “SI (J774A.1), L. donovani promastigotes” value was 3.1 and the “SI (THP-1), L. donovani promastigotes” value is on record as 24.9. For the same compound, in data set [4] (CC50 in J774A.1 / IC50 of amastigotes), the “SI (J774A.1), L. infantum amastigotes” value was determined as 2.6. Besides, the “SI (THP1), L. infantum amastigotes” value in data set [4] (CC50 in THP-1 / IC50 of amastigotes) came out at 21.2.
Regarding `C1CC2(CCN1)OOC1(OO2)C2CC3CC(C2)CC1C3` [LC139], in data set [1], the “SI (J774A.1), L. infantum promastigotes” value is given as 1.9 and the “SI (THP-1), L. infantum promastigotes” value turned out to be 0.2. In addition, in data set [2], the “SI (J774A.1), L. donovani promastigotes” value is on record as 1.8 and the “SI (THP-1), L. donovani promastigotes” value came to 0.2.

Source of the values: PMC9024893, “1,2,4-Trioxolane and 1,2,4,5-Tetraoxane Endoperoxides against Old-World Leishmania Parasites: In Vitro Activity and Mode of Action” (Pharmaceuticals, 2022).
